Experimental data: PubChem BioAssay AID504444 (National Center for Advancing Translational Sciences (NCATS), 2011)
Among all 360,000 compounds or so, about 7,500 (2.1%) were called active. Inconclusive results, whose numbers are uncertain, are shown with a selection of clear calls. The call rests on the fitted dose curve; in most records, active means well fitted inhibition curve with a large enough effect; inconclusive means small, poorly fitted or top-dose-only effect, or effect the other way; inactive means flat fitted curve, though single readings scatter. Potencies beside an inconclusive call are fits to weak or partial responses and may not hold up.

Assay: Nrf2 qHTS screen for inhibitors; further: nearly all actives have a fitted effect of over 60% in size
Settings: A549 ARE-Fluc reporter, luciferase luminescence, 18-24 h; activity change, negative = inhibition: at 46 µM (top of the series)
In short: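 Cells were seeded and rested 2 h, then exposed to compounds for 18-24 h. CellTiter-Fluor was read first as a viability measure. BugLite was added 15 min before the final luminescent read of ARE-luciferase activity in A549 cells.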
On the % scale 0 is the no-effect control and ±100 the full control effect; potency means the concentration at half of the fitted maximal effect.

Row | Compound | Potency | activity change, negative = inhibition
1 | O=C(c1ccco1)N1CCN(Cc2c(Cl)cccc2Cl)CC1 | inconclusive: 14.6 µM [activator, partial curve] | 
2 | COC(=O)/C(C#N)=C1/C=Cc2ccccc2N1 | inconclusive: 20.6 µM [activator, partial curve] | 
3 | O=C(CNC(=O)c1ccccn1)N/N=C/c1ccc2c(c1)OCO2 | inconclusive: 9.2 µM [activator, partial curve] | 
4 | Clc1ccccc1OCc1nc(-c2ccc(Br)o2)no1 | inconclusive: 14.6 µM [activator, partial curve] | 
5 | O=C(C1CCCN(S(=O)(=O)c2cccnc2)C1)N1CCN(c2ccccn2)CC1 (configuration not stated) | inconclusive: 16.4 µM [falling, single point] | 
6 | O=C(CN1CCCCCC1)Nc1cccc([N+](=O)[O-])c1 | inconclusive: 20.6 µM [activator, partial curve, poor fit] | 
7 | COc1ccc(NC(=O)c2ccco2)cc1NC(=O)COc1ccccc1Cl |  | inactive: -3.09%
8 | COc1ccc(N2CCN(c3oc(-c4ccccc4OC)nc3C#N)CC2)cc1 | inconclusive: 32.6 µM [falling, single point] | 
9 | CC(C)(C)OC(=O)CN1C(=O)NC2(CCCc3ccccc32)C1=O (configuration not stated) | inconclusive: 2.06 µM [falling, partial curve, poor fit] | 
10 | Cc1ccc(NC(=S)N2CCCN(Cc3ccc(F)cc3)C2)c(C)c1 | inconclusive: 29.1 µM [activator, single point] | 
11 | Nc1cc(-c2nc3ncccc3o2)ccc1Cl | inconclusive: 8.2 µM [activator, partial curve] | 
12 | O=C(Nc1cccc(-n2cnnn2)c1)c1cccs1 | inconclusive: 20.6 µM [activator, partial curve, poor fit] | 
13 | Cc1sc2c(c1C)CN(Cc1ccncc1)CN2C(=O)c1ccco1 | inconclusive: 23.1 µM [activator, single point] | 
14 | COc1ccc(C(=O)N2CCC(C(=O)Nc3ccccc3Cl)CC2)cc1 |  | inactive: 9.35%
15 | CC(=O)Nc1c(Cl)cnn(-c2ccccc2)c1=O | inconclusive: 20.6 µM [falling, single point] | 
16 | CCOC(=O)c1cc(C)sc1NC(=O)CN1CCN(C(=O)c2ccco2)CC1 |  | inactive: -19.4%
17 | O=Cc1ccc(-c2cccs2)s1 | inconclusive: 18.4 µM [activator, single point] | 
18 | COCc1c(C(=O)OCC(=O)N2c3ccccc3NC(=O)C2(C)C)oc2ccccc12 | inconclusive: 25.9 µM [falling, single point] | 
19 | Cc1cc(Cl)cc(Cl)c1OCCOc1cccc2cccnc12 |  | inactive: -28.9%
20 | Cc1ccccc1C1c2[nH]c3ccccc3c2CCN1Cc1cccn1-c1ncccn1 (configuration not stated) | inconclusive: 29.1 µM [falling, single point] | 
21 | N#Cc1ccc(OCC(=O)N2CCN(S(=O)(=O)c3ccc(Cl)s3)CC2)cc1 | active: 23.1 µM | 

Row | Compound | Potency | activity change, negative = inhibition
22 | O=C(c1cc(COc2ccc3ncccc3c2)on1)N1CCC[C@H]1CO | active: 9.2 µM | 
23 | CCN(C(=O)CSc1nc2scc(-c3ccccc3)c2c(=O)n1C)C1CCS(=O)(=O)C1 (configuration not stated) | inconclusive: 13 µM [falling, partial curve, poor fit] | 
24 | CCc1nnc(NC(=O)CCN2C(=O)/C(=C/c3cc(OC)c(OC)c(OC)c3)SC2=S)s1 | inconclusive: 2.91 µM [falling, partial curve, poor fit] | 
25 | CN1CCN(c2ccc(NC(=O)CSc3ccccc3)cc2F)CC1 | inconclusive: 1.46 µM [activator, full curve, poor fit] | 
26 | O=C(Nc1ccc(-n2nncc2-c2ccccc2)cc1)c1ccccc1 |  | inactive: -8.22%
27 | Cc1ccccc1-c1n[nH]c(=S)n1/N=C/C=C/c1ccco1 | inconclusive: 8.2 µM [activator, partial curve, poor fit] | 
28 | CC(C)CCOc1ccc(C2=NNC(=O)CC2)cc1 | inconclusive: 18.4 µM [activator, single point] | 
29 | COC/C=C/C1=CC2=CC(=O)C(C)(OC(=O)c3cnc4ccccc4n3)C(=O)C2=CN1CCOC (configuration not stated) |  | inactive: 2.63%
30 | COc1ccc2c(Cl)c(C(=O)OCC(=O)c3ccc4c(c3)NC(=O)CO4)sc2c1Cl | inconclusive: 25.9 µM [falling, single point] | 
31 | CN(c1ccc(C(=O)NCCC2=CCCCC2)cc1)S(C)(=O)=O | inconclusive: 5.17 µM [activator, full curve] | 
32 | Cc1ccc(C(=O)N/C(=C/c2ccccc2)C(=O)NCc2ccncc2)cc1 |  | inactive: 11.2%
33 | COc1ccc(CCNC(=O)Cn2cc(C(=O)c3ccccc3)c(=O)c3ccc(C)nc32)cc1OC | inconclusive: 16.4 µM [activator, partial curve] | 
34 | CC(C)C[C@H](NC(=O)c1nc[nH]c1C(=O)N[C@@H](CCCCNC(=O)OC(C)(C)C)C(=O)OC(C)(C)C)C(=O)OCc1ccccc1 | inconclusive: 29.1 µM [falling, single point] | 
35 | CCCCCCSC1=C(C#N)C(=O)NC2(CCCCC2)S1 | inconclusive: 29.1 µM [activator, single point] | 
36 | Cc1cc(C)cc(NC(=O)c2cccc(N3C(=O)C4C5C=CC(C5)C4C3=O)c2)c1 (configuration not stated) | inconclusive: 32.6 µM [falling, partial curve, poor fit] | 
37 | CCN(CC)S(=O)(=O)c1ccc2c(c1)nc(SCc1nc3ccsc3c(=O)[nH]1)n2CC | inconclusive: 13 µM [falling, partial curve, poor fit] | 
38 | O=S(=O)(c1ccc(Br)cc1)c1nc(-c2ccco2)oc1SCc1ccccc1Cl | inconclusive: 0.231 µM [falling, full curve, poor fit] | 
39 | c1cncc(-c2noc(-c3ccco3)n2)c1 | inconclusive: 16.4 µM [activator, partial curve, poor fit] | 
40 | N#Cc1ccc(Oc2ccc(C(F)(F)F)cc2NC(=O)c2ccc(F)cc2)cc1 |  | inactive: 22.2%
41 | O=C(Nc1ccc2ccccc2c1)c1cccc2ccccc12 | inconclusive: 7.31 µM [activator, partial curve] | 
42 | COc1ccc(NC(=S)Nc2cc(C)[nH]n2)cc1Cl | inconclusive: 20.6 µM [activator, partial curve] | 

Twelve entries from above, as comma-separated lines:
Row,Compound,Potency,"activity change, negative = inhibition"
12,O=C(Nc1cccc(-n2cnnn2)c1)c1cccs1,"inconclusive: 20.6 µM [activator, partial curve, poor fit]",
13,Cc1sc2c(c1C)CN(Cc1ccncc1)CN2C(=O)c1ccco1,"inconclusive: 23.1 µM [activator, single point]",
14,COc1ccc(C(=O)N2CCC(C(=O)Nc3ccccc3Cl)CC2)cc1,,inactive: 9.35%
15,CC(=O)Nc1c(Cl)cnn(-c2ccccc2)c1=O,"inconclusive: 20.6 µM [falling, single point]",
16,CCOC(=O)c1cc(C)sc1NC(=O)CN1CCN(C(=O)c2ccco2)CC1,,inactive: -19.4%
17,O=Cc1ccc(-c2cccs2)s1,"inconclusive: 18.4 µM [activator, single point]",
18,COCc1c(C(=O)OCC(=O)N2c3ccccc3NC(=O)C2(C)C)oc2ccccc12,"inconclusive: 25.9 µM [falling, single point]",
19,Cc1cc(Cl)cc(Cl)c1OCCOc1cccc2cccnc12,,inactive: -28.9%
20,Cc1ccccc1C1c2[nH]c3ccccc3c2CCN1Cc1cccn1-c1ncccn1 (configuration not stated),"inconclusive: 29.1 µM [falling, single point]",
21,N#Cc1ccc(OCC(=O)N2CCN(S(=O)(=O)c3ccc(Cl)s3)CC2)cc1,active: 23.1 µM,
22,O=C(c1cc(COc2ccc3ncccc3c2)on1)N1CCC[C@H]1CO,active: 9.2 µM,
23,CCN(C(=O)CSc1nc2scc(-c3ccccc3)c2c(=O)n1C)C1CCS(=O)(=O)C1 (configuration not stated),"inconclusive: 13 µM [falling, partial curve, poor fit]",
